Hit rate of the full screen: of about 320,000 compounds, about 2,100 (0.66%) were called active. The shares of active, inactive and inconclusive entries below differ from those in the screen. The call rests on the fitted dose curve; in most records, active means well fitted inhibition curve with a large enough effect in the signal ratio, with a control signal flat (not every such curve was filed as active); inconclusive means small, poorly fitted or top-dose-only effect, or effect the other way, or a change in a side signal; inactive means flat fitted curve, though single readings scatter; the % refers to the signal ratio. Potencies beside an inconclusive call are fits to weak or partial responses and may not hold up.
Experiment: qHTS Assay for Lipid Storage Modulators in Drosophila S3 Cells
Conditions: BODIPY lipid droplet fluorescence, 18-24 h, cells fed with added oleic acid; lipid storage change, negative = inhibition: at 46.1 µM (top of the series) unless noted
Procedure, shortened: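 Drosophila S3 cells loaded with oleic acid (400 uM, as added) and compounds at several concentrations; lipid droplets imaged by 488-nm laser-scanning cytometry, 500–530 nm intensity and object ratio to cell channel. Percent activity normalized to 20 uM Triacsin C.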
On the % scale 0 is the no-effect control and ±100 the full control effect; potency means the concentration at half of the fitted maximal effect.

Lipid storage change, negative = inhibition, inconclusive:
CC1(C)CNc2cc(N)ccc2S1 -13.8%, CCOC(=O)c1[nH]c2ccc(OC)cc2c1NC(=O)CCN1CCC(C)CC1 -25.4%, CCc1cc(CN2CCOCC2)c(NC(=O)c2ccccc2)s1 94.1%, Cc1[nH]c2ccccc2c1C(=O)C(C)OC(=O)c1ccc([N+](=O)[O-])o1 (configuration not stated) -93.4%, COc1ccc(OC)c(NC(=O)c2ccc(CSc3ncccn3)cc2)c1 16.3%, O=C(Nc1ccccc1Cl)N1CCCN(c2nc(-c3ccccc3)ns2)CC1 11.7%, CCCC(=O)NC(=S)Nc1ccc(NC(=O)c2cccs2)cc1 106%, COc1ccc2[nH]c(=O)c(C(=O)O)cc2c1 -6.89%, Cc1ccc(-n2c(Cc3cccn3C)nnc2SCC(=O)Nc2nnc(C)s2)cc1 -16.1%, O=C(O)c1ccc2c(c1)nnn2C1CCCCC1 -32%, COc1cc2ccccc2cc1C(=O)Nc1ccccc1C -73.6%, COc1ccc(C(C)C)cc1S(=O)(=O)Nc1ncn[nH]1 -17.2%, COC(=O)C1CC(O)CN1C(=O)NC1CCCCC1 (configuration not stated) 7.49%, Cc1cc(C)cc(OCC(=O)NNC(=O)c2cc3ccccc3o2)c1 -12.6%, O=C(Nc1cccc2c1C(=O)NC2=O)c1ccc(N2C(=O)CCC2=O)cc1 -17.3% [at 9.22 µM], CCN(CC)CCNC(=O)C(=O)NCC1OCCN1C(=O)c1ccc2c(c1)OCO2 (configuration not stated) 51.4%, Cc1ccc2c(c1)C(c1ccc(F)cc1)N(C(=O)c1cc3ccccc3oc1=O)CC(=O)N2 (configuration not stated) 35.5%, Cc1cc(C)cc(NC(=O)C2CCN(c3nc(C)cc(C)n3)CC2)c1 10.5%, Cc1ccc(C(=O)N2CCN(C(=O)CN3CCOCC3)C2)cc1 -103%, COc1cc(OC)c(NC(=O)CSc2nc3ccncc3[nH]2)cc1Cl 28.5%, CC1(C)C(=O)OC(C(=O)c2ccccc2)C2(CCCCC2)C1=O (configuration not stated) 7.94%, COc1cc(NS(=O)(=O)c2ccc(C)c(C)c2)c(OC)cc1Cl 199%, CNC(=S)NNC(=O)c1cn(C)nc1C 6.81%, Cc1nc2ccc(NC(=S)N3CCOCC3)cc2nc1C 2.47%, CCC1COCCS(=O)(=O)N1Cc1cccc(Cl)c1 (configuration not stated) -11%, CCOc1ccc(N=Nc2c(=O)[nH]n3c(=O)cc(C)[nH]c23)cc1 8.17%, COc1ccc2c(=O)cc(-c3cccnc3)oc2c1OC 11%, CC(=O)CC(c1ccccc1)S(=O)(=O)c1ccc(C)cc1 (configuration not stated) 18.8%, COc1cc(CNc2ccc(CNc3ncn[nH]3)cc2)cc(Cl)c1OCc1ccccc1 -21.4%, O=C(N/N=C/C(Br)=C\c1ccccc1)c1ccco1 18.2%, CN(Cc1ccc(Cl)cc1)C(=O)CCl -8.75%, Oc1ccccc1N=Cc1c(O)ccc2ccccc12 -18.3%, Cc1ccc(C)c(S(=O)(=O)N2CCN(C(=O)c3ccncc3)CC2)c1 -48.2%, CCN1CCN(c2ccc(S(=O)(=O)N3CCOCC3)cc2NC(=O)c2ccc(F)cc2Cl)CC1, CN(Cc1ccc(F)cc1)C(=O)CNC(=O)C1CCCCC1 23.9%, CC(C)CCNC(=O)CCNS(=O)(=O)c1ccc(Cl)cc1 -21.8%, CN(C(=O)Cc1noc2ccccc12)c1ccccc1 3.69%, CC(C)c1ccccc1OCC(O)CN1CCN(S(=O)(=O)c2ccc([N+](=O)[O-])cc2)CC1 (configuration not stated) -22%, Cc1nc(-c2ccc(S(=O)(=O)NCc3cccnc3)s2)cs1 -15.4%, COc1cccc(CNC(=O)c2ccc(C)c(S(=O)(=O)N3CCOCC3)c2)c1 297%, Nc1c(Cl)c(Cl)nc(C(=O)N/N=C/c2cccnc2)c1Cl 15.1%, O=C(CN1C(=O)CSC1=O)N1CCCC(Nc2ccc(F)cc2)C1 (configuration not stated) -45.8%, O=C(Nc1cccc(Cl)c1)c1cc(F)cc2c1OCOC2 5.45%, O=C1/C(=C/c2ccccc2)CSc2sccc21 -0.262%, Cc1c(OCC(=O)NC(Cc2c[nH]c3ccc(O)cc23)C(=O)O)ccc2c3c(c(=O)oc12)CCC3 (configuration not stated) 31.6%, Cc1cccc(-n2ccnc2SCC(=O)Nc2nccs2)c1C -7.08%, COc1ccc2c(C)cc(SCC(=O)Nc3cccnc3Cl)nc2c1 115%

Lipid storage change, negative = inhibition, inactive:
CCCN(CCC)S(=O)(=O)c1ccc2c(c1)CCCN2C(C)=O, Cc1cccn2c(=O)c(/C=C(\C#N)S(=O)(=O)c3ccccc3)c(Oc3ccc(Cl)cc3)nc12

Potency, inconclusive:
CCc1ccccc1NC(=O)c1ccc(-c2csc(C)n2)cc1 6.51 µM [activator, full curve], O=S1(=O)CC=C(CSC(=S)NC2CCS(=O)(=O)C2)C1 (configuration not stated) 16.4 µM [falling, partial curve, poor fit], CC1C2CC(CC1(C)C)N(C(=O)Nc1ccc3nccnc3c1)C2 (configuration not stated) 18.4 µM [activator, single point], COc1cc(C(=O)NCc2nnc(SCC(=O)Nc3nc4ccccc4s3)o2)cc(OC)c1OC 7.31 µM [activator, partial curve, poor fit], CCCCOC(=O)c1ccc(OC(=O)N2CCOCC2)cc1 20.6 µM [activator, single point], Nc1nc(N2CCCCC2)nc2ccccc12 1.03 µM [rising, single point], N#Cc1ccc(N2C(=O)[C@@H]3C(C(=O)C(c4ccccc4)c4ccccc4)=NN[C@@H]3C2=O)cc1 14.6 µM [activator, partial curve, poor fit], O=C(NCc1ccccc1)c1ccc2c(=O)n3c(nc2c1)CCCCC3 29.1 µM [falling, single point], CN1CCN(S(=O)(=O)c2cccc(C(=O)Nc3cc(C(F)(F)F)ccc3N3CCCCC3)c2)CC1 29.1 µM [activator, single point], CCOc1ccc(C(=O)NC2CCN(S(=O)(=O)c3ccccc3)CC2)cc1 29.1 µM [activator, single point], CCN(CC(=O)Nc1c(F)cccc1F)C(=O)c1ccccn1 0.366 µM [falling, full curve], CCc1c(C)nc2ncnn2c1N1CCCC(C(=O)NCc2cccs2)C1 (configuration not stated) 32.6 µM [falling, single point], O=C(CNc1ccc2c(c1)OCO2)N/N=C\c1cn(Cc2ccccc2)c2ccccc12 1.84 µM [activator, full curve, poor fit], CCOC(=O)CC1=C(C(=O)OCC)C(c2ccncc2)C(C#N)=C(N)O1 (configuration not stated) 8.2 µM [falling, partial curve], COc1ccccc1C(=O)NC(CCSC)C(=O)NNC(=O)C(C)Oc1ccccc1F (configuration not stated) 0.0259 µM [falling, full curve, poor fit], Cc1ccc(-c2nnc(N(C)C(=O)c3ccccn3)s2)cn1 7.31 µM [falling, single point], CCn1c(N2CCN(Cc3ccc([N+](=O)[O-])cc3)CC2)nc2ccccc21 18.4 µM [falling, single point], COC(=O)CCCC(=O)N1CCCC(C(=O)c2ccccc2SC)C1 (configuration not stated) 4.61 µM [falling, single point], Cn1c(N/N=C/c2c[nH]c3ccccc23)nc2ccccc21 6.51 µM [activator, partial curve], CC(C)CC(OC(=O)c1ccc(Cl)nc1)C(=O)NC1CCCC1 (configuration not stated) 20.6 µM [activator, single point], CCOc1ccc(S(=O)(=O)NCCC(=O)NCC(c2ccc(OC)cc2)N2CCCC2)cc1 (configuration not stated) 32.6 µM [falling, single point], O=C(CCOc1ccccc1)N1CCN(S(=O)(=O)c2ccccc2F)CC1 29.1 µM [activator, single point], CS(=O)(=O)c1ccc(C(=O)N2CC(=O)Nc3ccccc32)cc1 0.13 µM [activator, single point], Cc1ccc2[nH]c(=O)c(CN(Cc3nnnn3C3CCCC3)C3CCCCC3)cc2c1 4.11 µM [falling, full curve], COC(=O)NNC(=O)COc1ccccc1C 6.51 µM [falling, single point], Cn1c(C(=O)O)c(CC(=O)Nc2ccc(F)cc2F)c2ccccc21 32.6 µM [activator, single point], CCC(CNC(=O)c1c(C)nn(-c2ccccc2)c1Cl)c1ccccc1 (configuration not stated) 18.4 µM [activator, single point], CCn1cc(CN2CCC(n3nccc3NC(=O)c3ccc4c(c3)OCO4)CC2)c(C)n1 6.51 µM [activator, single point]

— PubChem BioAssay AID2685 (National Center for Advancing Translational Sciences (NCATS), 2010)
